# Measurements reported in PubChem BioAssay AID2685 (National Center for Advancing Translational Sciences (NCATS), 2010).
# The other results are listed elsewhere or left out. Further columns of the screen follow, without active or inactive calls. The list favours compounds with an active or inconclusive main result. The note in brackets gives the kind of curve behind each potency; many fits are weak.
# Assay: qHTS Assay for Lipid Storage Modulators in Drosophila S3 Cells;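 on cell number change: cells counted by Cell Tracker Red CMTPX staining in the red channel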
# Settings: BODIPY lipid droplet fluorescence, 18-24 h; for cell number change: measured here: cell count max response, cells fed with added oleic acid
# In short: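 Drosophila S3 cells loaded with oleic acid (400 uM, as added) and compounds at several concentrations; lipid droplets imaged by 488-nm laser-scanning cytometry, 500–530 nm intensity and object ratio to cell channel. Percent activity normalized to 20 uM Triacsin C.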
# [1] = measured here: cell number channel AC50, cells fed with added oleic acid
# [2] = measured here: lipid fluorescence (Fed channel) AC50, cells fed with added oleic acid
SMILES,cell number change,AC50 [1],AC50 [2]
CCC(=O)OC1(C#CCOc2ccc(OC)cc2)CCN(C)CC1,1.34%,–,–
O=C(Nc1ccc(NC(=O)c2ccc(S(=O)(=O)c3ccccc3)cc2)cc1)c1ccccc1,-83.6%,"23.1 µM [falling, partial curve, poor fit]","18.4 µM [falling, partial curve]"
C=CCOc1ccc(/C=C/C(=O)N2CCCN(S(=O)(=O)c3c(C)noc3C)CC2)cc1,75.5%,"20.6 µM [rising, single point]",–
COc1ccc(/C=N\NC(=O)c2cc(OCC(F)(F)F)ccc2OCC(F)(F)F)cc1,-9.4%,–,"0.58 µM [rising, single point]"
COc1ccc(N2C(=O)CC(Nc3ccc(F)cc3)C2=O)c([N+](=O)[O-])c1 (configuration not stated),21.9%,–,"7.94 µM [rising, partial curve]"
CCCCN(C(=O)c1cccc(S(=O)(=O)N(C)c2ccc(C)cc2)c1)c1c(N)n(CCCC)c(=O)[nH]c1=O,-25.4%,"2.31 µM [falling, full curve, poor fit]",–
CCOCCCNC(=O)C1CC(=O)N(C2CCCC2)C1 (configuration not stated),-34.9%,"0.731 µM [falling, full curve, poor fit]","3.66 µM [falling, full curve]"
CCCCN1CCN=C1N(C)C,13.7%,"0.82 µM [falling, full curve]","0.651 µM [falling, full curve]"
COc1ccccc1CNCc1cc(Br)ccc1OC,6.34%,–,"4.11 µM [falling, single point]"
O=C(CN1CCC(NC(=O)C2CCCCC2)CC1)Nc1cccc(F)c1,39.5%,–,"0.651 µM [rising, full curve, poor fit]"
CN/C(=C\[N+](=O)[O-])NCCSCc1ccc(CN(C)C)o1,-26.6%,–,"29.1 µM [falling, single point]"
Cc1ccc(S(=O)(=O)NC(C)C(=O)N2CCOCCOCCOCCOCC2)cc1 (configuration not stated),-9.52%,–,"29.1 µM [rising, partial curve]"
Nc1cccc(O)c1,1.24%,–,"0.92 µM [rising, full curve]"
Cc1cccc(OCC(=O)Nc2ccccc2N2CCCCC2)c1,-55.3%,"29.1 µM [falling, partial curve]",–
COc1ccccc1Nc1nc(Cl)nc(NC(C)(C)C)n1,19.2%,"0.00461 µM [rising, full curve, poor fit]","10.3 µM [rising, partial curve]"
NC(=O)C(c1ccc(Cl)cc1)c1ccc(Sc2ccc(Cl)cc2)nn1 (configuration not stated),-50.5%,"20.6 µM [falling, single point]","25.9 µM [falling, single point]"
CCc1cccc(C)c1NC(=O)CSc1nc(-c2ccccc2F)nc2nc[nH]c12,24.2%,–,"0.0184 µM [rising, full curve, poor fit]"
CCCCN1C(=O)c2ccc(C(=O)Nc3cccc(C)c3C)cc2C1=O,21.8%,"0.13 µM [rising, full curve, poor fit]","6.51 µM [rising, partial curve]"
COc1ccc(CCNC(=O)CCNS(=O)(=O)c2cccc(Cl)c2)cc1OC,–,"0.206 µM [falling, full curve, poor fit]",–

SMILES,cell number change,AC50 [1],AC50 [2]
CC(OC(=O)c1cccs1)C(=O)NCc1ccc2c(c1)OCO2 (configuration not stated),17.1%,–,"1.16 µM [rising, partial curve]"
COc1ccccc1CNC(=O)C1CC2Cn3c(nc4ccccc43)C2N1C (configuration not stated),0.818%,–,"29.1 µM [rising, single point]"
CCOC(=O)c1cc(C(=O)n2cc(Cl)cn2)nn1C,2.96%,–,"18.4 µM [falling, single point]"
NC(=S)NNC(=O)Nc1cccc(Cl)c1,10.5%,–,–
CCN(CC)CCOC(=O)c1ccc(NC(=O)COc2cc(=O)n(CC)c3ccccc23)cc1,-88.2%,–,"0.116 µM [rising, full curve, poor fit]"
COc1ccc(C2=NN(C(=O)c3ccccc3)C(c3cccc([N+](=O)[O-])c3)C2)cc1 (configuration not stated),32%,–,"29.1 µM [rising, single point]"
CCOC(=O)C1CCCN(CCC(=O)Nc2ccc3c(c2)CCC3)C1 (configuration not stated),25.8%,–,"0.58 µM [falling, single point]"
CCOC(=O)C1=C(N)OC(CCl)=C(C#N)C1c1ccsc1 (configuration not stated),24.4%,–,–
CSc1ccc(S(=O)(=O)NC2CCCCC2)cc1,–,–,"20.6 µM [falling, partial curve]"
O=C(Nc1ccccc1)c1ccc(NC2CCCCC2)c(S(=O)(=O)N2CCOCC2)c1,173%,"16.4 µM [rising, partial curve]","0.164 µM [rising, full curve, poor fit]"
COC(=O)c1ccc(C(=O)Nc2ccc(C(C)C)cc2N)cc1,58.9%,"16.4 µM [rising, partial curve]","25.9 µM [rising, partial curve, poor fit]"
COc1ccccc1-c1cc(C(=O)NCc2ccc(F)cc2)no1,28.1%,–,"0.82 µM [rising, full curve]"
CC(C)Oc1ccc(C(=O)NC2(C(F)(F)F)NC(=O)N(CCCc3ccccc3)C2=O)cc1 (configuration not stated),15.5%,–,"29.1 µM [rising, single point]"
O=C(CCCC(=O)N/N=C/c1ccccc1C(=O)O)N/N=C/c1ccccc1C(=O)O,-50.1%,"1.46 µM [falling, full curve]","0.259 µM [falling, partial curve, poor fit]"
O=C(COC(=O)COc1ccccc1)Nc1cccc([N+](=O)[O-])c1,19.1%,–,"2.59 µM [rising, single point]"
NC(=O)CC(NC(=O)Cc1ccc(Br)cc1)c1ccc(NCCN2CCCC2)c([N+](=O)[O-])c1 (configuration not stated),18.8%,–,"5.17 µM [falling, single point]"
O=C(CSc1nncn1-c1ccccc1)Nc1c(F)cccc1F,8.82%,–,"6.51 µM [rising, single point]"
O=C(NCC1CCCO1)c1cnc(Cl)c(Cl)c1 (configuration not stated),-8.11%,–,"5.8 µM [falling, full curve]"
CCOC(=O)C1CCCN(S(=O)(=O)c2c(C)c(C)cc(C)c2C)C1 (configuration not stated),–,"6.51 µM [falling, single point]",–

SMILES,cell number change,AC50 [1],AC50 [2]
O=C(COc1ccc(Cl)cc1)Nc1ccc(CN2CCOCC2)cc1,12.5%,–,"0.116 µM [rising, full curve, poor fit]"
CCOC(=O)c1c(C)[nH]c(C)c1C(=O)CSc1nc2ccccc2c(=O)n1-c1ccccc1C,31.1%,"0.58 µM [rising, full curve]","9.2 µM [rising, partial curve, poor fit]"
O=c1c2ccccc2ncn1CCOCCOc1cccc(Br)c1,-3.85%,–,"7.31 µM [rising, partial curve]"
CCC(C)[C@H](N)c1nnc(SCC(=O)Nc2cccc(Cl)c2)o1 (some centres not stated),12.9%,–,"0.082 µM [rising, single point]"
CC(C)(C)OC(=O)[C@H](Cc1ccccc1)NC(=O)c1nc[nH]c1C(=O)NC1CCN(C(=O)OC(C)(C)C)CC1,-34.7%,"23.1 µM [falling, single point]","29.1 µM [falling, single point]"
O=C(COC(=O)CCc1ccc(S(=O)(=O)N2CCCCC2)cc1)Nc1ccc2c(c1)OCO2,9.24%,–,"0.00461 µM [falling, full curve, poor fit]"
Cc1ccc(C)c(OCC(=O)NNC(=O)C2CC2)c1,7.92%,–,"0.058 µM [rising, full curve, poor fit]"
Cc1ccc(-c2nn(CCC(=O)NCC3CCCO3)c(=O)c3ccccc23)cc1 (configuration not stated),-20.5%,–,"1.46 µM [rising, full curve, poor fit]"
Cc1ccc(S(=O)(=O)N(C)Cc2ccc(C(=O)NN=C(CC(C)C)CC(C)C)cc2)cc1,26.7%,–,"4.61 µM [rising, full curve]"
CCOc1cccc(-c2nnc(SCC(=O)Nc3cc(C)ccc3OC)n2N)c1,-37.2%,–,"14.6 µM [falling, partial curve, poor fit]"
O=C1C2CC=CCC2C(=O)N1c1nc2n(n1)C(c1ccccc1)CC(c1ccccc1)N2 (configuration not stated),3.68%,–,–
O=C(CC1(c2ccc(Cl)cc2)C2CC3CC(C2)CC1C3)NCCO (configuration not stated),-28%,"0.116 µM [falling, full curve, poor fit]","2.31 µM [falling, partial curve, poor fit]"
CCOc1ccccc1NC(=O)COC(=O)/C=C/c1ccc(OC)c(OC)c1,8.6%,–,–
Cc1cc(C(F)(F)F)nc(SCC(=O)NC2=NC(=O)C(C)S2)n1 (configuration not stated),1.29%,"0.731 µM [falling, full curve]",–
Clc1ccc(CNc2ccc3nnc(-c4ccccc4)n3n2)cc1,12.2%,–,–
Cc1nc(NCCO)c2nnn(Cc3ccccc3F)c2n1,93.3%,"16.4 µM [rising, partial curve, poor fit]","0.103 µM [rising, full curve, poor fit]"
COc1ccc(C(=O)NCCCc2nc3ccccc3n2Cc2cc(C)ccc2C)cc1OC,-22%,–,"1.64 µM [rising, partial curve]"
CN(C)C(CNC(=O)c1cccs1)c1cccnc1 (configuration not stated),51.2%,–,–
O=C(Oc1ccccc1)n1c(=S)oc2ccccc21,-27.9%,"0.00517 µM [falling, full curve, poor fit]",–

# Arranged by heavy-atom count (descending): part of the list above.
SMILES,cell number change,AC50 [1],AC50 [2]
CC(C)(C)OC(=O)[C@H](Cc1ccccc1)NC(=O)c1nc[nH]c1C(=O)NC1CCN(C(=O)OC(C)(C)C)CC1,-34.7%,"23.1 µM [falling, single point]","29.1 µM [falling, single point]"
CCCCN(C(=O)c1cccc(S(=O)(=O)N(C)c2ccc(C)cc2)c1)c1c(N)n(CCCC)c(=O)[nH]c1=O,-25.4%,"2.31 µM [falling, full curve, poor fit]",–
CCOc1cccc(-c2nnc(SCC(=O)Nc3cc(C)ccc3OC)n2N)c1,-37.2%,–,"14.6 µM [falling, partial curve, poor fit]"
O=C(COC(=O)COc1ccccc1)Nc1cccc([N+](=O)[O-])c1,19.1%,–,"2.59 µM [rising, single point]"
CCOC(=O)c1cc(C(=O)n2cc(Cl)cn2)nn1C,2.96%,–,"18.4 µM [falling, single point]"
